Like-named read-outs stand apart in the source and are kept apart here. Results are given in words; binding and its absence hold for the method and conditions named.

For experiment [1], the target named is T1, nuclear cap-binding complex (CBC: CBP80ΔNLS + CBP20), human (human) (UniProt Q09161+P52298).
T1 sequence 1: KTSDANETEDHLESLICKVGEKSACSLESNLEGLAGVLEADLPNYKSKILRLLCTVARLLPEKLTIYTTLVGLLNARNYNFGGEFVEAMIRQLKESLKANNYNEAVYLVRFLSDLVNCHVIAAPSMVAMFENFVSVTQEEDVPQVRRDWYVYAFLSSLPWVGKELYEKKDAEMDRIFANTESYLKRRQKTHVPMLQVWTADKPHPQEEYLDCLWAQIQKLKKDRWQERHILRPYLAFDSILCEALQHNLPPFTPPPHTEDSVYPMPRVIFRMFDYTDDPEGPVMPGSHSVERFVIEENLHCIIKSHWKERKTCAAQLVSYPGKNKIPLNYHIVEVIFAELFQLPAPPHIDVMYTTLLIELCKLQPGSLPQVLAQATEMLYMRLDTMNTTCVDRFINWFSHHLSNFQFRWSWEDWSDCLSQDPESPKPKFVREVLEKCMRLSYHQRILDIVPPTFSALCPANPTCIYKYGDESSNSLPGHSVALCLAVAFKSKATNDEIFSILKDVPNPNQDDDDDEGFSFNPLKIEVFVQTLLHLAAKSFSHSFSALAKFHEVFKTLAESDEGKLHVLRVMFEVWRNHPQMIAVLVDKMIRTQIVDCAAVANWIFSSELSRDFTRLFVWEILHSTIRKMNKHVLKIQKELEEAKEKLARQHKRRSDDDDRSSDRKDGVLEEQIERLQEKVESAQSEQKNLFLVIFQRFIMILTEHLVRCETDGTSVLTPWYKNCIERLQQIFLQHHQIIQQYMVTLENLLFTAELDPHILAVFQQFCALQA
T1 sequence 2: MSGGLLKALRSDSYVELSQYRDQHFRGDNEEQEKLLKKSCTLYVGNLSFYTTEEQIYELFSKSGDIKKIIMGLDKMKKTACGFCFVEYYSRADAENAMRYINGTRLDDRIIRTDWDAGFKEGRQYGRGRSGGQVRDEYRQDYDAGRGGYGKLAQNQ
The experiment can be described thus: SEC.

For experiment [2], the target named is T1, nuclear cap-binding complex (CBC: CBP80ΔNLS + CBP20), human (human). The experiment can be described thus: SEC. This is another data set of the same source.

As to “His-MBP-PHAX^103-196 (W118E) (from UniProt Q9H814 103-196) (domain or fragment)”, the binding result in experiment [1] was “no binding”.

B1: NCBP3^560-620 (W581E) (domain or fragment, UniProt Q53F19 560-620)
chain: TKKVDHRAPGAEEDDSELQRAEGALIKEKEQSRQKKSRLDNLPSLQIEVSRESSSGSEAES
As to B1, in experiment [2], the binding entry is “no binding”.

The record behind these values is doi:10.1101/2023.07.25.550453 (bioRxiv, 2023).
